Measurements: PubChem BioAssay AID1671190 (National Center for Advancing Translational Sciences (NCATS), 2021)
In all, about 580,000 compounds went through this assay and about 6,100 (1.1%) were called active. This list was built around the results that the source calls inconclusive (neither active nor inactive); the mix of calls is not that of the screen. Calls follow the shape of the dose curve; as a rule, active = well fitted inhibition curve with a large enough effect; inconclusive = small, poorly fitted or top-dose-only effect, or another doubt; inactive = no such curve, though single readings can be large or run the other way. Where the call is inconclusive, the potency comes from a doubtful curve fit.

By UniProt entry, the sequences of proteins in these tests, tags left out. Where a name states a change or a piece, a line headed by the entry shows the natural chain unless it says otherwise.
UniProt P18054: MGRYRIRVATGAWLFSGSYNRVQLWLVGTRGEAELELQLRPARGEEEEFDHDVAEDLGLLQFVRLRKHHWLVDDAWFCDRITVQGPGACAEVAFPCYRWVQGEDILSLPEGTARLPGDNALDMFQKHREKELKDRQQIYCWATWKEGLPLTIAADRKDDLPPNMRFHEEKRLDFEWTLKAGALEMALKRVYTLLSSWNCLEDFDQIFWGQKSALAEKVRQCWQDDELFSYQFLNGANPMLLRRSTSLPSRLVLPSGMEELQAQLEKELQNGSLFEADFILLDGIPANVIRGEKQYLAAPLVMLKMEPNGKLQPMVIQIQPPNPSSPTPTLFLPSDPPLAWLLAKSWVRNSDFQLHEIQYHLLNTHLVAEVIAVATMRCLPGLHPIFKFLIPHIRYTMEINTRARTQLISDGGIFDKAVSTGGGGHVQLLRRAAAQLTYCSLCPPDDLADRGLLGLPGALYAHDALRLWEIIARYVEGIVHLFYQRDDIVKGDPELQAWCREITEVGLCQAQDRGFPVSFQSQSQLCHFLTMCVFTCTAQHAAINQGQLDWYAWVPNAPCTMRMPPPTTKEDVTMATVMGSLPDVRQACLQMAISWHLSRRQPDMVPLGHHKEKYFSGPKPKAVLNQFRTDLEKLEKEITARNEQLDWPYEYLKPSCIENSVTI

target: Polyunsaturated fatty acid lipoxygenase ALOX12 (Homo sapiens) (UniProt P18054); assay: Primary qHTS assay for inhibitors of human arachidonate 12S-lipoxygenase (ALOX12): Round 2; details: purified 12hLO, xylenol orange hydroperoxide absorbance; activity change, negative = inhibition: at 108 µM (top of the series) unless noted
Method in brief: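 Purified human 12hLO (150 nM final) in 25 mM Hepes, 0.01% Triton X-100, pH 7.0 was preincubated 15 min at room temperature with compound. Then 40 uM arachidonic acid was added, 30 min. Hydroperoxide was read by Fe-XO absorbance ratio 573/405 nm.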
% is scaled to controls: 0 for no effect and ±100 for the full control effect; potency is read from the fitted curve at half-maximal effect.

**Q.** `O=c1cc(O)n(-c2ccc(Cl)cc2)c(=S)[nH]1` was tested. Which Potency did it give?
**A.** inconclusive: 44.7 µM [inhibitor, partial curve, poor fit]

**Q.** Which “activity change, negative = inhibition” value does the source give for `COc1cccc(C2=NS(=O)(=O)N(C)C(C(=O)NC3CCCC3)=C2)c1` here?
**A.** inactive: -23.2%

**Q.** How did the Potency turn out when `COc1ccc(NC(=O)c2c(C)noc2C(C)C)cc1OC(F)F` was run?
**A.** inconclusive: 70.8 µM [inhibitor, partial curve, poor fit]

**Q.** `COC(c1ccccc1)c1c(-c2ccccc2)nn(C)c1Cl` (stereo not given) was tested. Which “activity change, negative = inhibition” value did it give?
**A.** inactive: 0%

**Q.** Which Potency does the source give for `Cc1c(Cl)cnc(NC(=O)COC(=O)C2CCCC2)c1Cl` here?
**A.** inconclusive: 50.1 µM [inhibitor, partial curve, poor fit]

**Q.** Which Potency does the source give for `COc1ccc(NC(=O)Cc2cccc3ccccc23)c2cccnc12` here?
**A.** inconclusive: 50.1 µM [inhibitor, partial curve, poor fit]

**Q.** Which Potency does the source give for `Cc1cc(C)cc(NC(=O)CSc2oc(-c3ccccc3)nc2S(=O)(=O)c2ccccc2)c1` here?
**A.** inconclusive: 100 µM [inhibitor, partial curve, poor fit]

**Q.** `Cc1ccc(NC(=O)CCC(=O)c2cc(C)sc2C)nc1` was tested. Which Potency did it give?
**A.** inconclusive: 50.1 µM [inhibitor, partial curve, poor fit]

**Q.** How did the Potency turn out when `COc1cccc(C(NC(C)=O)c2nc(-c3ccc4c(c3)OCO4)cs2)c1` (stereo not given) was run?
**A.** inconclusive: 79.4 µM [inhibitor, single point]

**Q.** Which Potency does the source give for `O=C(O)c1cc(N/N=C/c2ccc(-c3ccc(F)cc3)o2)ccc1Cl` here?
**A.** inconclusive: 44.7 µM [inhibitor, partial curve, poor fit]

**Q.** Which “activity change, negative = inhibition” value does the source give for `CCN(C(=O)CN(C)S(=O)(=O)c1cc2c(cc1C)NC(=O)C(C)O2)c1cccc(C)c1` (stereo not given) here?
**A.** inactive: 4.72%

**Q.** How did the “activity change, negative = inhibition” value turn out when `O=C1Cc2cc(CCN3CCN(c4nsc5ccccc45)CC3)c(Cl)cc2N1` was run?
**A.** inactive: -47.1% [at 57.4 µM]

**Q.** `COc1ccc(Nc2nc3cc(-c4ccsc4)sc3c(=O)n2C)cc1OC` was tested. Which Potency did it give?
**A.** inconclusive: 39.8 µM [inhibitor, partial curve, poor fit]

**Q.** Which Potency does the source give for `O=C(NCc1ccccc1)c1ccc(Cl)c(S(=O)(=O)N2CCCC2)c1` here?
**A.** inconclusive: 100 µM [inhibitor, partial curve, poor fit]

**Q.** With `Cc1cc(C)cc(NS(=O)(=O)c2ccc3[nH]cc(C(=O)NC4CCCCC4)c(=O)c3c2)c1` as the molecule, how does the Potency read?
**A.** inconclusive: 50.1 µM [inhibitor, partial curve, poor fit]

**Q.** `COc1ccccc1OCc1nc(C#N)c(NCc2ccco2)o1` was tested. Which Potency did it give?
**A.** inconclusive: 100 µM [inhibitor, single point]

**Q.** With `CCn1cc(S(=O)(=O)c2ccccc2)c(=O)c2cc(F)c(N3CCCC3)cc21` as the molecule, how does the “activity change, negative = inhibition” value read?
**A.** inactive: -5.29%

**Q.** With `O=C(Nc1ccccc1)c1nnsc1S(=O)c1ccc(Cl)cc1` (stereo not given) as the molecule, how does the Potency read?
**A.** active: 14.1 µM

**Q.** For `O=C(Nc1ccccc1)N(Cc1ccc(Cl)cc1)c1ccccn1`, which “activity change, negative = inhibition” value is on record?
**A.** inactive: -1.57%

**Q.** With `O=C(O)C1CCc2nnc(C3CCN(C(=O)c4cccc(Cl)c4)CC3)n21` (stereo not given) as the molecule, how does the Potency read?
**A.** inconclusive: 44.7 µM [inhibitor, partial curve, poor fit]

**Q.** With `CCN1CCCc2cc(CN(CCN3CCOCC3)C(=S)Nc3ccc(C)cc3)ccc21` as the molecule, how does the Potency read?
**A.** inconclusive: 35.5 µM [inhibitor, single point]

**Q.** For `C/C(=N\NC(=O)c1c[nH]c2ccccc12)c1ccc(C)o1`, which “activity change, negative = inhibition” value is on record?
**A.** inactive: -22.9%

**Q.** `COc1ccc(-c2n[nH]c(=S)n2-c2ccccc2C)cc1` was tested. Which Potency did it give?
**A.** inconclusive: 89.1 µM [inhibitor, partial curve, poor fit]

**Q.** How did the Potency turn out when `c1ccc(OCCCCN2CCC(c3nc4ccccc4s3)CC2)cc1` was run?
**A.** active: 0.891 µM

**Q.** `Cc1ccc(NC(=O)Cn2c(O)c(N=NC(N)=O)c3ccccc32)cc1` was tested. Which “activity change, negative = inhibition” value did it give?
**A.** inactive: -12.6%

**Q.** How did the “activity change, negative = inhibition” value turn out when `O=C(Cc1ccccn1)N1CCCC(c2nn(-c3ccccc3)c(=O)[nH]2)C1` (stereo not given) was run?
**A.** inactive: 31.2%

**Q.** How did the Potency turn out when `O=C(NCc1nnc2n1C(C(=O)O)CC2)c1ccc2c(c1)OC(F)(F)O2` (stereo not given) was run?
**A.** inconclusive: 22.4 µM [inhibitor, partial curve, poor fit]

**Q.** With `C[C@H](CO)N1C[C@H](C)[C@H](CN(C)C(=O)Nc2cccc(F)c2)Oc2cc(Br)ccc2S1(=O)=O` as the molecule, how does the Potency read?
**A.** inconclusive: 126 µM [inhibitor, single point]

**Q.** Which “activity change, negative = inhibition” value does the source give for `C/C(=N/NS(=O)(=O)c1ccc(Cl)cc1)c1cccc(NC(=O)c2ccc(Cl)cc2Cl)c1` here?
**A.** inactive: 0%

**Q.** `CCCOCC(=O)N1CCCC(c2cc(N3CCCC3)nc(C)n2)C1` (stereo not given) was tested. Which Potency did it give?
**A.** inconclusive: 2.51 µM [inhibitor, full curve, poor fit]

**Q.** `CC(C)CC(=O)n1nc(-c2cccnc2)nc1NCc1ccc(F)cc1` was tested. Which Potency did it give?
**A.** inconclusive: 44.7 µM [inhibitor, partial curve, poor fit]

**Q.** Which Potency does the source give for `Cc1nnc(SCc2ccc(Cl)cc2)nc1/C=C/N(C)C` here?
**A.** active: 39.8 µM

**Q.** Which “activity change, negative = inhibition” value does the source give for `O=C(OCc1ccccc1)c1cn(-c2ccccc2)nc1-c1ccncc1` here?
**A.** inactive: 0%

**Q.** How did the Potency turn out when `CCn1c(C)cc(C(=O)COC(=O)c2c(C)nn(Cc3ccc(C)cc3)c2Cl)c1C` was run?
**A.** inconclusive: 100 µM [inhibitor, partial curve, poor fit]

**Q.** For `COc1ccc(C(=O)Oc2cccc3cccnc23)cc1[N+](=O)[O-]`, which Potency is on record?
**A.** inconclusive: 79.4 µM [inhibitor, partial curve, poor fit]

**Q.** With `CC(=O)c1cccc(S(=O)(=O)NCC(c2ccco2)N2CCCCC2)c1` (stereo not given) as the molecule, how does the Potency read?
**A.** inconclusive: 44.7 µM [inhibitor, single point]

**Q.** For `COC(=O)c1ccc(C)c(NC(=O)Cc2cc(C(C)=O)ccc2OC)c1`, which Potency is on record?
**A.** inconclusive: 79.4 µM [inhibitor, partial curve, poor fit]

**Q.** For `COCCCNC(=O)c1ccc(-n2c(-c3ccccc3)cc3c2CCCC3)cc1`, which Potency is on record?
**A.** inconclusive: 44.7 µM [inhibitor, partial curve, poor fit]

**Q.** For `COc1cc(C)c(CN2CCN(S(=O)(=O)c3ccc(Cl)s3)CC2)cc1OC`, which Potency is on record?
**A.** inconclusive: 50.1 µM [inhibitor, partial curve, poor fit]

**Q.** How did the “activity change, negative = inhibition” value turn out when `Cc1ccc(S(=O)(=O)N2CN(CC3CCCO3)c3nc4ccccc4nc32)c(C)c1` (stereo not given) was run?
**A.** inactive: -28%

**Q.** With `Oc1ccc(N=Cc2cc(Br)c(N3CCOCC3)o2)cc1` as the molecule, how does the Potency read?
**A.** inconclusive: 89.1 µM [inhibitor, partial curve, poor fit]

**Q.** How did the Potency turn out when `Cc1ccccc1COc1ccccc1C(=O)O` was run?
**A.** inconclusive: 0.251 µM [inhibitor, full curve, poor fit]

**Q.** With `COc1ccc(Oc2cccc(Cl)c2CNC(=O)c2ccccc2C(=O)O)cc1` as the molecule, how does the Potency read?
**A.** inconclusive: 44.7 µM [inhibitor, partial curve, poor fit]

**Q.** `Cc1cccc(OCc2cccc(C(N)=O)c2)c1` was tested. Which Potency did it give?
**A.** inconclusive: 2 µM [inhibitor, single point]

**Q.** Which Potency does the source give for `CCN(CC)Cc1cc(Nc2c3ccccc3nc3c4ccccc4n(C)c23)cc(CN(CC)CC)c1O` here?
**A.** inconclusive: 22.4 µM [inhibitor, full curve, poor fit]

**Q.** How did the Potency turn out when `Cc1ccc(/C=C/c2ccc3cc(C)ccc3n2)cc1` was run?
**A.** inconclusive: 35.5 µM [inhibitor, partial curve, poor fit]

**Q.** For `COc1ccccc1N1CC(C)(C)C(=O)N(C(=O)c2ccc(C)cc2)C1=S`, which “activity change, negative = inhibition” value is on record?
**A.** inactive: 0%

**Q.** How did the “activity change, negative = inhibition” value turn out when `COc1ccc(O)c(/C=N/NC(=O)c2ccc(OCc3cccc(Br)c3)cc2)c1` was run?
**A.** inactive: 2.05%

**Q.** `COCCN1CCC(OC(C)=O)C(C)C1C` (stereo not given) was tested. Which “activity change, negative = inhibition” value did it give?
**A.** inactive: -29.8%

**Q.** For `O=C(CNC(=O)c1cnccn1)NC1CCCc2c1[nH]c1ccccc21` (stereo not given), which Potency is on record?
**A.** inconclusive: 39.8 µM [inhibitor, partial curve]

**Q.** How did the Potency turn out when `Cc1ccccc1/C=C(\C#N)c1nc2ccccc2[nH]1` was run?
**A.** inconclusive: 39.8 µM [inhibitor, partial curve, poor fit]

**Q.** How did the Potency turn out when `Cn1c(CN2CCOCC2)nnc1SCc1ccc(Br)cc1` was run?
**A.** inconclusive: 39.8 µM [inhibitor, partial curve, poor fit]

**Q.** How did the Potency turn out when `OCCN(Cc1ccccc1)Cc1cccc(F)c1` was run?
**A.** inconclusive: 0.282 µM [inhibitor, full curve, poor fit]

**Q.** Which Potency does the source give for `COC(=O)C1CN(Cc2ccc(Cl)cc2)CCS(=O)(=O)N1Cc1cn(Cc2ccccc2)nn1` (stereo not given) here?
**A.** inconclusive: 25.1 µM [inhibitor, partial curve, poor fit]

**Q.** How did the Potency turn out when `COc1ccc(S(=O)(=O)Nc2cccc(S(=O)(=O)N3CCCCC3)c2)cc1` was run?
**A.** inconclusive: 56.2 µM [inhibitor, partial curve, poor fit]

**Q.** For `C=CCNc1nc(-c2cc(C)n(-c3cc(C)on3)c2C)cs1`, which Potency is on record?
**A.** inconclusive: 6.31 µM [inhibitor, full curve, poor fit]

**Q.** `CN1C(=O)Cc2cc(S(=O)(=O)Nc3cccn4nc(C5CC5)nc34)ccc21` was tested. Which “activity change, negative = inhibition” value did it give?
**A.** inactive: 63.3%

**Q.** With `Cc1ccc(NC(=O)[C@H](Cc2ccccc2)n2cnnn2)cc1` as the molecule, how does the “activity change, negative = inhibition” value read?
**A.** inactive: 1.52%

**Q.** For `CCC(CO)Oc1cc(NCc2ccncc2)c2ncn(C(C)C)c2c1` (stereo not given), which Potency is on record?
**A.** inconclusive: 5.62 µM [inhibitor, full curve]

**Q.** With `COc1ccc(C(C(=O)NC2CCCCC2)N(C(=O)c2sc(C)nc2C)c2ccc(OC)cc2)cc1` (stereo not given) as the molecule, how does the Potency read?
**A.** inconclusive: 2.82 µM [inhibitor, full curve, poor fit]

**Q.** For `Cc1cccc(NC(=O)c2nnn(-c3cccc(C(F)(F)F)c3)c2N)c1`, which Potency is on record?
**A.** inconclusive: 100 µM [inhibitor, single point]

**Q.** `O=C(Cc1ccccc1)Nc1ccc2n(c1=O)C[C@H]1C[C@@H]2CN(S(=O)(=O)c2ccc(Cl)cc2)C1` was tested. Which Potency did it give?
**A.** inconclusive: 17.8 µM [inhibitor, full curve, poor fit]

**Q.** Which Potency does the source give for `O=C(/C=C/c1ccco1)NC(=S)Nc1cccc([N+](=O)[O-])c1` here?
**A.** active: 39.8 µM

**Q.** Which Potency does the source give for `O=C(Nc1ccc(S(=O)(=O)Nc2cnc3ccccc3n2)cc1)c1ccc(Br)o1` here?
**A.** inconclusive: 89.1 µM [inhibitor, partial curve, poor fit]

**Q.** With `CN(C)/C=C(\C=O)c1ncc(C(F)(F)F)cc1Cl` as the molecule, how does the Potency read?
**A.** inconclusive: 100 µM [inhibitor, partial curve, poor fit]
